Experimental data taken from patent EP3424943A1, “PEPTIDE” (Kyoto University, priority 2016, dated 2017).
Part of at least one peptide drawing is inferred or uncertain, most often the ends. Ends that are not written are not given here. Peptide text beside a SMILES is read from it.

Columns and labels:
[1] = test system: MGN3-1 ghrelin secretion cells; assay: Intracellular cAMP level (Forskolin dependent cAMP elevation, Hit Hunter cAMP Assay); type: cell-based; details: MGN3-1 cells, 0.5 mM IBMX and 0.01 mM Forskolin, 30 minutes
[2] = test system: intracellular calcium ion level ([Ca^2+]); assay: Intracellular calcium ion level measurement; type: cell-based
ddY mouse = assay: Oral administration in vivo, serum ghrelin level; details: male, fasted 18 hours, p.o. 0.3 mg/kg or 1 mg/kg in physiological saline, measured one hour later, n = 6, Fig. 5
[3] = test system: MGN3-1 ghrelin secretion cells; assay: Evaluation of ghrelin secretion activity (acyl-ghrelin in medium by ELISA); type: cell-based; details: MGN3-1 cells, 4 hours culture, concentration dependence, n = 4, Fig. 2

Compound	Forskolin dependent cAMP level elevation [1]	intracellular calcium ion level ([Ca^2+]) [2]	serum ghrelin level (ddY mouse)	concentration showing a significant effect of inhibiting ghrelin secretion [3] [mM]
LIVTQTMKG [LIVTQTMKG]	inhibited the Forskolin dependent cAMP elevation	decreased the intracellular calcium level	reduced the serum ghrelin level	≥ 0.01
CC[C@H](C)[C@H](NC(=O)[C@@H](N)CC(C)C)C(=O)O [LI, reference compound] (H-Leu-Ile-OH)	inhibited the Forskolin dependent cAMP elevation	decreased the intracellular calcium level		≥ 0.3
